Tests used:
[1] = system: Enterococcus faecium isolate NTUH664; conditions: Sensititre GPN3F
[2] = system: Enterococcus faecium isolate NTUH688; conditions: Sensititre GPN3F

## CN[C@H](CC(C)C)C(=O)N[C@H]1C(=O)N[C@@H](CC(N)=O)C(=O)N[C@H]2C(=O)N[C@H]3C(=O)N[C@H](C(=O)N[C@H](C(=O)O)c4cc(O)cc(O)c4-c4cc3ccc4O)[C@H](O)c3ccc(c(Cl)c3)Oc3cc2cc(c3O[C@@H]2O[C@H](CO)[C@@H](O)[C@H](O)[C@H]2O[C@H]2C[C@](C)(N)[C@H](O)[C@H](C)O2)Oc2ccc(cc2Cl)[C@H]1O [vancomycin]
[1]
  vancomycin MIC: > 128 µg/mL
[2]
  vancomycin MIC: > 128 µg/mL
